From article PMC11971462, “Generation and validation of a novel multitarget small molecule in glioblastoma” (Cell Death & Disease, 2025)

Tested on: GNS166 cells
Experiment: Label-free proteomics differential expression
Type: cell-based, human
Details: GNS166, 5 µM, 48 h; p < 0.05
Description: Proteomic studies were performed by the Proteomics Facility of the CIC bioGUNE by label-free relative quantification on nLC MS/MS. […] In both approaches, the top 20 enriched terms were plotted and the pathways were clustered using divisive hierarchical clustering based on pairwise Jaccard distances.

C#CCN(Cc1cc2cc(OCCCN3CCCCC3)ccc2n1S(=O)(=O)c1ccccc1)C(=O)CCCCCCC(=O)NO [DDI199]
Number of downregulated proteins (proteomics): 391
Number of upregulated proteins (proteomics): 217
